# Measurements as given in patent publication US20240269113A1, “3-(2-(DIMETHYLAMINO)ETHYL)-1H-INDOL-4-yl DERIVATIVES” (priority 2023, published 2024).
# Columns and labels:
# [1] = format: in vitro ADME
# Procedure: The elimination rate constant and half-life (t1/2) were determined using Ln(MS response) vs time plots. […] The human plasma stability data are included in table A.
smiles,measurement,setting,value
"CC(C)CC(=O)n1cc(CCN(C)C)c2c(O)cccc21 [Compound 195, 1-(3-(2-(dimethylamino)ethyl)-4-hydroxy-1H-indol-1-yl)-3-methylbutan-1-one]",Human Plasma Maximum % Psilocin,[1],2%
same,Human Hepatocytes Maximum % Psilocin,,25%
